Data from the supplement of paper PMC10077471.
The full ranking holds about 1,900 compounds; the median of “excess over highest single agent (ExcessHSA) synergy score, 6x6 matrix” is about -83, and the lowest 2% start at about -370. The list shows a part of the results.

tested on: NCI-H446; test: excess over highest single agent (ExcessHSA) synergy score, 6x6 matrix; higher = less synergy (more negative = stronger synergy); details: 72 h; CellTiter-Glo viability

Row | SMILES | excess over highest single agent
1 | CC1(COc2ccc3c(c2)ncn3-c2ccc3cccc(N4CCC(N)CC4)c3n2)COC1 + Cc1sc2c(c1C)C(c1ccc(Cl)cc1)=N[C@@H](CC(=O)OC(C)(C)C)c1nnc(C)n1-2 [NCGC00250412-19] | -117
2 | N#CC(=Cc1ccc(O)c(O)c1)C(=O)NCc1ccccc1 + Cc1sc2c(c1C)C(c1ccc(Cl)cc1)=N[C@@H](CC(=O)OC(C)(C)C)c1nnc(C)n1-2 [NCGC00250412-19] | -130
3 | N#CC(=C(/N)Sc1ccccc1N)/C(C#N)=C(/N)Sc1ccccc1N + Cc1sc2c(c1C)C(c1ccc(Cl)cc1)=N[C@@H](CC(=O)OC(C)(C)C)c1nnc(C)n1-2 [NCGC00250412-19] | -54.6
4 | CC(O)(C#Cc1ccc2c(c1)N(c1nc(N)ncc1Cl)CC2)c1nccs1 (stereo not given) + Cc1sc2c(c1C)C(c1ccc(Cl)cc1)=N[C@@H](CC(=O)OC(C)(C)C)c1nnc(C)n1-2 [NCGC00250412-19] | 54
5 | CN(C(=O)c1ccc(F)cc1C(F)(F)F)C1CCN(c2nnc(-c3ccnn3C)c3ccccc23)CC1 + Cc1sc2c(c1C)C(c1ccc(Cl)cc1)=N[C@@H](CC(=O)OC(C)(C)C)c1nnc(C)n1-2 [NCGC00250412-19] | -103
6 | COc1cc2c(cc1OC)CN(CCc1ccc(NC(=O)c3cc(OC)c(OC)cc3NC(=O)c3cnc4ccccc4c3)cc1)CC2 + Cc1sc2c(c1C)C(c1ccc(Cl)cc1)=N[C@@H](CC(=O)OC(C)(C)C)c1nnc(C)n1-2 [NCGC00250412-19] | 50.9
7 | CS(=O)(=O)c1ccc(C2=C(c3ccccc3)C(=O)OC2)cc1 + Cc1sc2c(c1C)C(c1ccc(Cl)cc1)=N[C@@H](CC(=O)OC(C)(C)C)c1nnc(C)n1-2 [NCGC00250412-19] | -19.4
8 | Cc1[nH]c(=O)c(C#N)cc1-c1ccncc1 + Cc1sc2c(c1C)C(c1ccc(Cl)cc1)=N[C@@H](CC(=O)OC(C)(C)C)c1nnc(C)n1-2 [NCGC00250412-19] | 88.7
9 | CCCNC(=O)[C@H]1O[C@@H]1C(=O)N[C@H](C(=O)N1CCC[C@H]1C(=O)OC)[C@@H](C)CC + Cc1sc2c(c1C)C(c1ccc(Cl)cc1)=N[C@@H](CC(=O)OC(C)(C)C)c1nnc(C)n1-2 [NCGC00250412-19] | -117
10 | CC(C)[C@H](CO)Nc1nc(Nc2cccc(Cl)c2)c2ncn(C(C)C)c2n1 + Cc1sc2c(c1C)C(c1ccc(Cl)cc1)=N[C@@H](CC(=O)OC(C)(C)C)c1nnc(C)n1-2 [NCGC00250412-19] | -111
11 | Cc1ccnc2c1NC(=O)c1cccnc1N2C1CC1 + Cc1sc2c(c1C)C(c1ccc(Cl)cc1)=N[C@@H](CC(=O)OC(C)(C)C)c1nnc(C)n1-2 [NCGC00250412-19] | 12.1
12 | C[Se]CCC(N)C(=O)O (stereo not given) + Cc1sc2c(c1C)C(c1ccc(Cl)cc1)=N[C@@H](CC(=O)OC(C)(C)C)c1nnc(C)n1-2 [NCGC00250412-19] | -104
13 | CC(C)(C)[C@H](NC(=O)c1ccc(N)c(Cl)c1)C(=O)N1CCC[C@H]1C(=O)N[C@H](C#N)CC(=O)O + Cc1sc2c(c1C)C(c1ccc(Cl)cc1)=N[C@@H](CC(=O)OC(C)(C)C)c1nnc(C)n1-2 [NCGC00250412-19] | 2.17
14 | OCCNC1CCCc2c1[nH]c1ccc(-c3ccccc3)cc21 (stereo not given) + Cc1sc2c(c1C)C(c1ccc(Cl)cc1)=N[C@@H](CC(=O)OC(C)(C)C)c1nnc(C)n1-2 [NCGC00250412-19] | 29.7
15 | CN(C)c1ccc2nc3ccc(=[N+](C)C)cc-3sc2c1 + Cc1sc2c(c1C)C(c1ccc(Cl)cc1)=N[C@@H](CC(=O)OC(C)(C)C)c1nnc(C)n1-2 [NCGC00250412-19] | -82.1
16 | CCc1nc(-c2cccc(C)c2)c(-c2ccnc(NC(=O)c3ccccc3)c2)s1 + Cc1sc2c(c1C)C(c1ccc(Cl)cc1)=N[C@@H](CC(=O)OC(C)(C)C)c1nnc(C)n1-2 [NCGC00250412-19] | -106
17 | CN1C(C(=O)Nc2ccccn2)=C(O)c2sccc2S1(=O)=O + Cc1sc2c(c1C)C(c1ccc(Cl)cc1)=N[C@@H](CC(=O)OC(C)(C)C)c1nnc(C)n1-2 [NCGC00250412-19] | 313
18 | COc1ccc(C[C@@H](C)[C@@H](C)Cc2ccc(OC)c(OC)c2)cc1OC + Cc1sc2c(c1C)C(c1ccc(Cl)cc1)=N[C@@H](CC(=O)OC(C)(C)C)c1nnc(C)n1-2 [NCGC00250412-19] | -111
19 | C=C[C@H]1CN2CC[C@H]1C[C@@H]2[C@@H](O)c1ccnc2ccc(OC)cc12 + Cc1sc2c(c1C)C(c1ccc(Cl)cc1)=N[C@@H](CC(=O)OC(C)(C)C)c1nnc(C)n1-2 [NCGC00250412-19] | -219
20 | N[C@@H]1C[C@H]1c1ccccc1.N[C@H]1C[C@@H]1c1ccccc1 + Cc1sc2c(c1C)C(c1ccc(Cl)cc1)=N[C@@H](CC(=O)OC(C)(C)C)c1nnc(C)n1-2 [NCGC00250412-19] | 16.2
21 | CCC1(c2ccc(N)cc2)CCC(=O)NC1=O (stereo not given) + Cc1sc2c(c1C)C(c1ccc(Cl)cc1)=N[C@@H](CC(=O)OC(C)(C)C)c1nnc(C)n1-2 [NCGC00250412-19] | -82.4
22 | NS(=O)(=O)c1cccc2c1C(=O)c1cccc(O)c1C2=O + Cc1sc2c(c1C)C(c1ccc(Cl)cc1)=N[C@@H](CC(=O)OC(C)(C)C)c1nnc(C)n1-2 [NCGC00250412-19] | -234
23 | CCCCCCCCCCCCCCCC(=O)O[C@@H]1[C@@H](O)[C@@H](O)[C@@H]([C@H](NC(=O)[C@@H]2C[C@@H](CCC)CN2C)[C@H](C)Cl)O[C@@H]1SC + Cc1sc2c(c1C)C(c1ccc(Cl)cc1)=N[C@@H](CC(=O)OC(C)(C)C)c1nnc(C)n1-2 [NCGC00250412-19] | -179
24 | CCOCC(O)COc1ccc(NC(=O)CC[S+](C)C)cc1 (stereo not given) + Cc1sc2c(c1C)C(c1ccc(Cl)cc1)=N[C@@H](CC(=O)OC(C)(C)C)c1nnc(C)n1-2 [NCGC00250412-19] | 23.8
25 | CCN(C)C(=O)Oc1cccc([C@H](C)N(C)C)c1 + Cc1sc2c(c1C)C(c1ccc(Cl)cc1)=N[C@@H](CC(=O)OC(C)(C)C)c1nnc(C)n1-2 [NCGC00250412-19] | -74.4

Single values from above:
In excess over highest single agent, CN1C(C(=O)Nc2ccccn2)=C(O)c2sccc2S1(=O)=O + Cc1sc2c(c1C)C(c1ccc(Cl)cc1)=N[C@@H](CC(=O)OC(C)(C)C)c1nnc(C)n1-2 [NCGC00250412-19] has 313
In excess over highest single agent, CCC1(c2ccc(N)cc2)CCC(=O)NC1=O (stereo not given) + Cc1sc2c(c1C)C(c1ccc(Cl)cc1)=N[C@@H](CC(=O)OC(C)(C)C)c1nnc(C)n1-2 [NCGC00250412-19] has -82.4
